# PMC12016516
# The chains behind the UniProt entries cited, without tags or fusion partners. Where a name states a change or a piece, a line headed by the entry shows the natural chain unless it says otherwise.
# UniProt Q5JE61: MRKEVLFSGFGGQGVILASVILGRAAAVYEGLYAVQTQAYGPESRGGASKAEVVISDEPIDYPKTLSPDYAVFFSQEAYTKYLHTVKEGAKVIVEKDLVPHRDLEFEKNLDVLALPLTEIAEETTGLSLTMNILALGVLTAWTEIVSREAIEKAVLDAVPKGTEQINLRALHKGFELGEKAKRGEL
# B1: uncharacterized protein (TK0930) (protein, UniProt Q5JI89 1-276)
# chain: MRLIVRGKHIRDSLAAELRKEGIKFEVRERLGYDGFIGYMLTGTLDEIEKAVESIEGVDRDALREGFMSFKESVTHILEHLKVGEDAEKLLMEGAWVGDILDQLHRAGVLDYDGKTVKLREGVDPSSIRFEFKFPFNIVHNPEEAEKVAKQFVFTDLLPEYEFEFLELDIARINKIGSIAGRYFPEDVLLKAYFALISRGILAEEILRVLKDGKIPEEELIKSFMRAAPMAIPTPKGTLVINYSKEAIEETLKLLKKLGYIEIKGGKVRKIREMGE
# B2: glycerol-1-phosphate dehydrogenase [NAD(P)+] (TK0789) (protein, UniProt Q5JH91 1-351)
# chain: MERRIHLMQLPREVLLGENLTGEVVSVAKRIGLTGKALVIYGPKTKEIAGRDVEDAIKSAYEVSSLTIRKGATMEEVERTIEKIKDEGIGWVIAVGGGSIIDVAKLSSFKTGVPFISFPTTASHDGIASANASIKDLGSKTSVKAVPPVAVIADVKVIKTAPYRYLAAGVGDTISNLTAVRDWQLAHRIKGEYYSEYAASLSLMSAKMVMRNADIIRLGNEESVRKVIKALISTGVAMSIAGSSRPASGAEHLFSHALDMLLDKPALHGEQTGLGTIIMAYLHGMKWERVRETLKRVGAPTNAYELGIDPEVIIEALTIAHTIRPERYTILGKDGLTREAAEKAAKITGVI
# B3: 2-Oxoacid:ferredoxin oxidoreductase, α2 subunit (protein, UniProt Q5JE85 1-396)
# chain: MIIRGDEPEQIRLIKKLYKPGNYFMQGNEAVAYGAIFAGCRFYAGYPITPSSEIAETMARELPKLGGYYLQMEDEIGSIAAMVGASWTGLKVMTATAGPGFSLMQENLGYAVMTETPLVLVDVQRSGPSTGQATKGAQGDFFQARWGTHGDHPIIALSPTSGQDAFWEIIRAFNIAERLRTPVVMLFDGVLAHTRELVKIPDVEEVEITYRKLPQNEEEARLPFGDPHGDGVPPMPLFGHGYFTHVTGSTHKENGLRDVYTPEVHDRLVRRLHRKIEQNRHVYEKYEEYFTDDAEILVVSWGVTARPALGAVLKAREEGIKAGLFVPKTVHPFPGERMRALGKKVRAVLVPEMNLGQMILEVQRYVNDDVLLKGVNKIGGVPLTVNEILREIRGVA
# B4: tRNA (1-methyladenosine) methyltransferase (TK1328) (protein, UniProt Q5JGS7 1-253)
# chain: MISVGDRVLLVDPRGKRYLVKVEDKEFHTDLGILNLGELIGKPYGAKIQSHRGETFTALKPDINDIIAKMRRGPQIVHPKDAGIIIAYAGISPGDTVIEAGAGSGALTIFLANAVGPTGKVISYEVRKDFYEIAKKNVELAGFSDRVVLKNKSIYDGIDEKEADHIVLDLPQPENVLPHAVDVLRPGGYFVAYTPCMNQVHRFFRALEEFKGEFMRPRVVEVLVREQEVKRECMRPKTTMLAHTGYITFLRKL
# B5: Indolepyruvate-Fd oxidoreductase, α subunit (protein, UniProt O07835 1-647)
# chain: MAKVTDIVLWDKPGERVLLLGNHAIARGALEANIAVFAAYPGTPSSELTDTMAAVAKKAGVYMEYSTNEKVAFETALAAAWSGLRAMTAMKHVGLNVAADSFLSSVGMGVEGGFVIMVADDPSMWSSQNEQDTRVYAKFANVPVLEPSSPHEAKEMTKYAFELSEKFKHFVILRTTTRSSHARGDVVLGELPEEIKTGKRKFGKFKKDPTRFVDVPAHARKFHPLILEKIEKIREELNNCPFNWIEGKEDAKVGIIAPGLSYAYVKEALAWLGVEDVKILKLGTPFPVPYGLLGKFFDGLEKVLIVEELEPVVEEQVKTWAYDKGLRIPIHGKDLVPRVYEMTTRRAVEAIAKFLGLETPINFAEIDEKYEKVSQIVPPRPPSLCPACPHRNSFFAIRKAAGPKAIYPSDIGCYTLGVLPPLRTVDTTVAMGASIGIGHGLSIAMNGSLAEEEHKEGKEKQIIVATIGDSTFYHTGLPALANAIYNRSNVLIVVLDNLVTAMTGDQPNPGTGQTPHGMGKRIPIEDVAKAMGADFVAVVDPYDIKATYETIKKALEVEGVSVVVSRQVCALYKIGQMRRRGMKWPIYHVVEDKCTGCKICINAYGCPAIYWDPETKKAKVDPTMCWGCGGCAQVCPFDAFEPMKEGE
# B6: predicted ATPase, AAA superfamily, containing PIN and KH nucleic acid-binding domains (TK0953) (protein, UniProt Q5JI99 1-602)
# chain: MRVLVPDTSVIVDGRLTQFLSTLGEKVKVVVPEAVVAEIEHQANEGKAIGHVGLEELKKLREMADRGEILLEFYGERPDLWQIRRAKAGEIDNMVREVAQTLSATLVTGDQVQRDIAIAKGIDVIYLTTKKEVRHRLEDFFDDTTMSVHLKAGIRPLAKKGRPGEWRLVPVRDEPLTDVELEEIADDIVERAKRDPESFIELDEPGATVVQLRNYRIVIAKPPFSDRIEITAVRPITKLSIEDYELSERLLERLRDKAAGILIAGAPGEGKTTFAQALAEWYASMGKIVKTMEKPRDLQVSEEITQYTALKGSMELTGDILLLVRPDYTIFDEMRKTSDFKIYSDLRLAGVGMIGVVHATKPIDAIQRFIGRVELGMIPQIVDTVIFIKAGRVAKVLTLEYLVKVPSGMKEEDLARPVIEVRDFETGELEYEIYTYGEEVSVVPVKKEEKAPALRLAEKRLKQEIKKFLPDVNAEVEIVSPHKAVIYADEFDIPAIIGKKGKRITELEKRIGISIDVKSFAEREELKPKERIPVEVEEKKKTIVLRVSPEYAKKPLKFYGGEQYVFTATPSRKGLVKVSKSTPIGKELKRLLDAGIPIWAST
# B7: OGORδ (TK1131) (protein, UniProt Q5JE84 1-90)
# chain: MADVETKTTVEKEGYLVIGKAEGIVEIDIDTFLCKGCGICVEMCPRKVFEWSKELSEKGVHYPVPVNAEKCVKCKLCELLCPDFAIAVRW
# B8: enolase (TK2106) (protein, UniProt Q5JEV6 1-430)
# chain: MENPFEITNVIAREILDSRGNPTVEVEVYTPISMGRAAVPSGASTGTHEALELRDGGSRYHGKGVRRAVENVNKIIAPEIIGMDVTWQRDIDTLMLELDGTENKSNLGANAILGVSLAVAKAAANALGLPLYQYIGGTNAYVMPVPMSNVINGGVHAGNELDFQEFMIMPVGADSFREAIRWVSETYHVLKKVIMEKYGRNAVNVGDEGGFAPPMKEVTEPLDVLIKAIEEAGYKPGDEIAFALDAASSEFFDGEKGKYVVAGKEYDKGELLELYRELVTTYPIVSIEDPFHEEDWEGFVMITKELGSKVQIVGDDLFVTNPKRIRKGIEMGAANALLLKVNQIGTLSEAIDAAYTSFRAGYGVVVSHRSGETEDATIADLAVALNAGQIKTGAPARSDRNAKYNQLIRIEEELEGIAVYPGKKFRNPFL
# B9: membrane-bound hydrogenase, [4Fe-4S] cluster-binding subunit, MBH-N (protein, UniProt Q5JIL1 1-143)
# chain: MKAPILVPVVLRNLFKKPATNRFPQTEPVPIPEDFRGMIAYNVDKCVGCRMCVNVCPAGVFVYLPEIRKVALWTARCVYCGQCVDVCPTGALQLSKDFLLASYDNHDDRFIPLKPEKVEEIKRKLEEQKKAKEAAKKEKEGKA
# B10: Indolepyruvate-Fd oxidoreductase, β subunit (protein, UniProt O07836 1-202)
# chain: MKEYNIVITGVGGQGILTAANLLGWAALRAGYKVRVGEVHGMSQRFGSVIAYVRFGEDVYGAMVPEGKADVILSFEPVEALRYINYLKKGGLVFTNARPIPPVQVSMGLATYPTLDEMKKIVEEDFGGKFMAFDAEKLAMEAGNIVTTNVVLIGALSQTPGFPLSEEQIKEVIRISVPPKTIDVNMRAFELGVKAAKEMLGL
# B11: OGORβ1 (TK1124) (protein, UniProt Q5JE60 1-281)
# chain: MYLKSAYEIREKYLRKDMLPTIFCPGCGIGSVLQFTLRAIDDLGLNQDEIVWVSGIGCSSRVPGFVNFDGLHTTHGRALAFATGIKLTNPDLKIIAFMGDGDAAAIGGNHLIHAIRRNLDVTVILINNFTYGMTGGQVAPTALKGLKGTTAPYGQFENPFDIAQLAVSAGANYVARWTVFNYLQGINSIKKALQKEGFTLVEFLSPCPISFGRRNRMKTAPELIRWYQKITVPLAKAKKMSPEELEGKIVIGEFADRDRPGLVREYREYIKRAKKMMGWEE
# Key:
# Experiment in all cases: affinity purification with mass spectrometry; HA- and His6-tagged bait made from its native locus, captured from clarified T. kodakarensis lysate on a Ni2+-charged chelating column (buffer A: 10 mM Tris HCl pH 8.0, 500 mM NaCl, 10% glycerol), eluted with an imidazole gradient; pooled fractions identified by MuDPIT LC-MS/MS and compared with the parental strain TS559 (P < 0.05, log2 fold change ≥ 2); cells grown at 85°C with (+S˚) or without (–S˚) elemental sulfur
# [1] = target: T1, Membrane-bound sulfane reductase, NiFe-hydrogenase large subunit 2, MBS-L (Thermococcus kodakarensis) (UniProt Q5JGG2)
# T1 sequence: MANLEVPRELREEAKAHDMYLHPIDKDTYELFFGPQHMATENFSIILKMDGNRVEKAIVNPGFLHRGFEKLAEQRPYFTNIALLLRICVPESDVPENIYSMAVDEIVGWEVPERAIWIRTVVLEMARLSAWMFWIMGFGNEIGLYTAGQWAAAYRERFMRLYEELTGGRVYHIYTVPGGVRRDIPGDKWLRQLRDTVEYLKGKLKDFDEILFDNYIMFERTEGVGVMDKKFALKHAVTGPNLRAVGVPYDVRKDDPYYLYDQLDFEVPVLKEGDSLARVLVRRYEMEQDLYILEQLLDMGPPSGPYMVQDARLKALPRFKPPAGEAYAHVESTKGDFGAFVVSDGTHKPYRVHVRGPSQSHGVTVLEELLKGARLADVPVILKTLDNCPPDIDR
# [2] = target: 2-Oxoacid:ferredoxin oxidoreductase, γ1 subunit (Thermococcus kodakarensis) (UniProt Q5JE61)
# [3] = target: T2, Indolepyruvate-Fd oxidoreductase, β subunit (Thermococcus kodakarensis) (UniProt O07836)
# T2 sequence: B10 chain
# [4] = target: T3, Indolepyruvate-Fd oxidoreductase, α subunit (Thermococcus kodakarensis) (UniProt O07835)
# T3 sequence: B5 chain
binder,measurement,setting,value
B1,binding,[1],binds
B2,binding,[1],binds
B3,binding,[2],binds
B4,binding,[1],binds
B5,binding,[3],binds
B6,binding,[1],binds
B7,binding,[2],binds
B8,binding,[1],binds
B9,binding,[1],binds
B10,binding,[4],binds
B11,binding,[2],binds

# These are yes or no findings as the source states them, for the method shown. Binding seen in cells or lysates may run through a third protein. These calls come from enrichment with a bait or labelling near it, and not all partners need be listed.
